Experimental findings from patent US20130005676A1 (UNIVERSITY OF ROCHESTER, priority 2009, published 2013) are described below.

The series has as its system AMP deaminase. Kind of series: HPLC analysis of AMP degradation in muscle/subcutis sections from the Zusanli point. Conditions: 1 mM AMP, 45 min. The class given is biochemical, mice. As to the method: The analysis of enzymatic degradation of purines was based on sections (400 μm) of skeletal muscles with overlying subcutis harvested from tissue in the Zusanli point. Each section per well was placed into a 6-well plate with 2 ml (in a phosphate-free buffer (in mM: 2 CaCl2, 120 NaCl, 5 KCL, 10 Glucose, 20 HEPES, pH=7.3) and bubble with 100% O2 containing 1 mM AMP with or without 500 μM deoxycoformycin (Tocris Bioscience, UK). The samples were collected from each well at 0 and 45 min and stored at −80° C. for HPLC analysis. The analyses were carried out on an ESA reverse-phase H584 HPLC system (ESA Inc., USA) and an ESA model 526 UV detector (ESA Inc.) as previously described (Cui et al., “The Organic Cation Transporter-3 is a Pivotal Modulator of Neurodegeneration in the Nigrostriatal Dopaminergic Pathway,” Proc. Nat'l. Acad. Sci. USA 106:8043-8048 (2009); Volonte et al., “Development of an HPLC Method for Determination of Metabolic Compounds in Myocardial Tissue,” J. Pharm. Biomed. Anal. 35:647-653 (2004), which are hereby incorporated by reference in their entirety). Chromatographic separation was achieved by using a Lichrospher® 100 RP-18 column (5 μm, 250 mm×3 mm; Merck, Germany). […] Eluted purines were detected at 260 nm, and the chromatographic peaks were integrated using CoulArray software.

As for `Nc1ncnc2c1ncn2[C@@H]1O[C@H](COP(=O)(O)O)[C@@H](O)[C@H]1O` [AMP], the “exogenous added AMP deaminated to IMP” value was ~80% and the “exogenous added AMP dephosphorylated to adenosine” value was 20%.
